In US4559324A (Takeda Chemical Industries, Ltd., priority 1982, dated 1985) one finds step yield data, which are given here for 17 substances.

The series in a line: general procedure: solution-phase peptide synthesis; DCC/HONB; DCC/HOBt.

“H-Lys-Gly-Gln-Phe-Phe-Gly-Asp(OBu^t)2.tartarate” had a step yield (late stage modification step, tartarate) of 97%.
“H-Arg-Gly-Gln-(D)-Trp-Phe-Gly-Asp(OBu^t)2.H2 SO4”: under “late stage modification step, H2SO4”, the step yield is recorded as 97%.
H-Lys-Gln-Phe-Phe-Gly-Asp(OBu^t)2: where the note is “coupling step”, the step yield is given as 42.0%.
“H-(D)-Arg-Gly-Gln-(D)-Trp-Phe-(D)-Trp-Asp(OBu^t)2.citrate” returned a step yield (late stage modification step, citrate) of 83%.
As to H-Arg-Gly-Gln-Phe-Phe-Gly-Asp(OBu^t)2, the step yield (late stage modification step) turned out to be 39.5%.
The substance Z-Gln-Phe-Phe-(D)-Ala-Asp(OBu^t)2 gave a step yield (coupling step) of 84.2%.
In the case of Z-Phe-Phe-Gly-Asp(OBu^t)2, the step yield (coupling step) turned out to be 63.3%.
H-Arg-Gln-Phe-Phe-Gly-Asp(OBu^t)2 gave a step yield (coupling step) of 62.3%.
“Z-Arg(NO2)-Gly-Gln-Phe-Phe-Gly-Asp(OBu^t)2” came in with a step yield (coupling step) of 63.1%.
For “H-Arg-Gly-Gln-(D)-Trp-Phe-Gly-Asp(OBu^t)2”, the step yield (late stage modification step) is reported as 45.7%.
The substance Z-(D)-Trp-Phe-Gly-Asp(OBu^t)2 showed a step yield (coupling step) of 63.7%.
“Z-Arg(NO2)-Gly-Gln-(D)-Trp-Phe-Gly-Asp(OBu^t)2”: the step yield (coupling step) came out at 90.4%.
In the case of Z-Phe-Phe-(D)-Ala-Asp(OBu^t)2, the step yield (coupling step) came out at 48.2%.
“H-Arg-Gly-Gln-Phe-Phe-Gly-Asp(OBu^t)2.2HCl” displayed a step yield (late stage modification step, 2HCl) of 89%.
For Z-Gln-(D)-Trp-Phe-Gly-Asp(OBu^t)2, the step yield (coupling step) was 67.6%.
As to Z-Gln-Phe-Phe-GLy-Asp(OBu^t)2, the step yield (coupling step) stood at 62.2%.
In turn, “H-Arg-Gly-Gln-Phe-Phe-(D)-Ala-Asp(OBu^t)2” gave a step yield (coupling step) of 20.5%.
